Results are given in words; binding and its absence hold for the method and conditions named. Some binding calls cover weakened binding; strength is not graded here.
Assays:
[1] = molecular target: HER2 (Her2/neu, ErbB2) on human cells and in human tissue sections (human) (UniProt P04626); assay: immunohistochemistry on a breast cancer tissue microarray
[2] = molecular target: HER2 (Her2/neu, ErbB2) on human cells and in human tissue sections (human) (UniProt P04626); assay: immunohistochemistry on colon tissue
[3] = molecular target: HER2 (Her2/neu, ErbB2) on human cells and in human tissue sections (human) (UniProt P04626); assay: immunohistochemistry on stomach cancer tissue
[4] = molecular target: HER2 isolated as Spot 1 on a 2D gel (UniProt P04626); assay: 2D gel western blot, spot identified by MALDI-MS
[5] = molecular target: phosphorylated form of HER2 from SKBR3 cell lysates (185 kDa band) (human) (UniProt P04626); assay: immunoprecipitation from SKBR3 lysate and western blot
[6] = molecular target: HER2 (Her2/neu, ErbB2) on human cells and in human tissue sections (human) (UniProt P04626); assay: immunohistochemistry on breast tissue
[7] = molecular target: HER2 (Her2/neu, ErbB2) on human cells and in human tissue sections (human) (UniProt P04626); assay: immunohistochemistry on FFPE tissue sections
[8] = molecular target: HER2 (Her2/neu, ErbB2) on human cells and in human tissue sections (human) (UniProt P04626); assay: immunofluorescence on fixed, permeabilised cells
[9] = molecular target: soluble/shed HER2 in human plasma (human) (UniProt P04626); assay: ELISA on plates coated with plasma
[10] = molecular target: phosphorylated form of HER2 from SKBR3 cell lysates (185 kDa band) (human) (UniProt P04626); assay: reciprocal immunoprecipitation and western blot with anti-phosphotyrosine, 185 kDa band

- binding [1]: binds
- binding [2]: binds
- binding [3]: binds
- binding [4]: binds
- binding [5]: binds
- binding [6]: binds
- binding [7]: binds
- binding [8]: binds
- binding [9]: binds
- binding [10]: binds
B1: Alper-HER2 mAb 2HE (antibody, IgG1, V domains shown)
VH: GPGLAAPSQSLSITCTVSGFSLTSYVISWVRQPPGKGLEWLGVIWTGGGTNYNSALKSRLSISKDNSKSQVSLKMNSLQTDDTARYYCASLSYDGFDYWGQGTTVT
VL: ILMTQSPAIMSASPGEKVTMTCSASSSVSYMHWYQQKSGTSPKRWIYDTSKLASGVPARFSGSGSGTSYSLTISSMEAEDAATYYCQQWSSNPLTFGAGTKLEIK
